Results published in patent US8740762B2, “Specific inhibition of cPLA2 enhances the efficacy of radiotherapy” (Vanderbilt University, priority 2007, dated 2014).
Some entries share one result that the patent states for a list of compounds. At least one compound was matched to its structure with a doubt left.

System: PLA2
Assay type: cell-based, human
Conditions: HUVEC, 1 μM inhibitor 30 minutes prior to 3 Gy, harvested 3 minutes after beginning of irradiation

CCCCCCCCCCCCCCCC(=O)C(F)(F)F [PACOCF3]
attenuation in PLA2 activation: < 20%
